Source: PubChem BioAssay AID1224830 (NIAID, 2016)

Screen: 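Regulators of TLR4 signalling towards TNF-alpha in macrophage-like cells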 (primary screen)
Cells: human THP-1 monocytic leukaemia cells, TNF dual-luciferase reporter clone, PMA-differentiated to macrophage-like cells
Reagent: siRNA pool against human genes, 50 nM
Duration: LPS for 4 h, given about 3 days after siRNA transfection
Treatment: bacterial LPS (TLR4 ligand), 10 ng/ml
Measurement: 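Ratio of firefly to renilla light, scaled to the plate median and expressed as a robust z-score per replicate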
Reading the numbers: TNF reporter robust z-score: higher = stronger TNF reporter response to LPS
Call rule: 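Each well counts as active if its z-score is over 2.8 or under -1.5; controls are left without a call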
The deposit covers about 18,000 reagents; below is a part drawn at random. Over the whole deposit, about 2,900 (16%) are marked active. 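Calls are made per well; low scores hint the gene aids the LPS response, high scores that it dampens it.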 Unmarked entries are inactive. Repeated entries: four replicate wells of each siRNA pool.

| gene | TNF reporter robust z-score |
| --- | --- |
| THRSP (thyroid hormone responsive) | 0.91 |
| THRSP (thyroid hormone responsive) | -0.12 |
| THRSP (thyroid hormone responsive) | 0.05 |
| THRSP (thyroid hormone responsive) | 0.38 |
| CNR2 (cannabinoid receptor 2) | 2.43 |
| CNR2 (cannabinoid receptor 2) | 2.42 |
| CNR2 (cannabinoid receptor 2) | 2.1 |
| CNR2 (cannabinoid receptor 2) | 4.17 (active) |
| RPRD1A (regulation of nuclear pre-mRNA domain containing 1A) | -0.81 |
| RPRD1A (regulation of nuclear pre-mRNA domain containing 1A) | 0.42 |
| RPRD1A (regulation of nuclear pre-mRNA domain containing 1A) | -0.55 |
| RPRD1A (regulation of nuclear pre-mRNA domain containing 1A) | 0.79 |
| SLBP (stem-loop histone mRNA binding protein) | 0.02 |
| SLBP (stem-loop histone mRNA binding protein) | 0.72 |
| SLBP (stem-loop histone mRNA binding protein) | -0.22 |
| SLBP (stem-loop histone mRNA binding protein) | 0.3 |
| COLCA1 (colorectal cancer associated 1) | 0.54 |
| COLCA1 (colorectal cancer associated 1) | 0.21 |
| COLCA1 (colorectal cancer associated 1) | -0.07 |
| COLCA1 (colorectal cancer associated 1) | 0.62 |
| PALS2 (protein associated with LIN7 2, MAGUK p55 family member) | 0.54 |
| PALS2 (protein associated with LIN7 2, MAGUK p55 family member) | 0.72 |
| PALS2 (protein associated with LIN7 2, MAGUK p55 family member) | 0.1 |
| PALS2 (protein associated with LIN7 2, MAGUK p55 family member) | -0.2 |
| OR4D11 (olfactory receptor family 4 subfamily D member 11) | 1.82 |
| OR4D11 (olfactory receptor family 4 subfamily D member 11) | 1.46 |
| OR4D11 (olfactory receptor family 4 subfamily D member 11) | 3.2 (active) |
| OR4D11 (olfactory receptor family 4 subfamily D member 11) | 2.49 |
| PPP4R1 (protein phosphatase 4 regulatory subunit 1) | 1.26 |
| PPP4R1 (protein phosphatase 4 regulatory subunit 1) | 1.57 |
| PPP4R1 (protein phosphatase 4 regulatory subunit 1) | -0.67 |
| PPP4R1 (protein phosphatase 4 regulatory subunit 1) | -0.71 |
| PLSCR2 (phospholipid scramblase 2) | 5.78 (active) |
| PLSCR2 (phospholipid scramblase 2) | 4.93 (active) |
| PLSCR2 (phospholipid scramblase 2) | 1.61 |
| PLSCR2 (phospholipid scramblase 2) | 1.72 |
| OR1L4 (olfactory receptor family 1 subfamily L member 4) | 0.74 |
| OR1L4 (olfactory receptor family 1 subfamily L member 4) | 2.04 |
| OR1L4 (olfactory receptor family 1 subfamily L member 4) | 0.08 |
| OR1L4 (olfactory receptor family 1 subfamily L member 4) | 0.25 |
| NTN5 (netrin 5) | 1.1 |
| NTN5 (netrin 5) | 1.58 |
| NTN5 (netrin 5) | 0.74 |
| NTN5 (netrin 5) | -0.34 |
| KRI1 (KRI1 homolog) | -0.17 |
| KRI1 (KRI1 homolog) | -0.12 |
| KRI1 (KRI1 homolog) | 0.43 |
| KRI1 (KRI1 homolog) | 0.58 |
| HMOX2 (heme oxygenase 2) | -0.23 |
| HMOX2 (heme oxygenase 2) | 0.91 |
| HMOX2 (heme oxygenase 2) | 1 |
| HMOX2 (heme oxygenase 2) | 0.81 |

Continued; the last 14 above are carried over.
| gene | TNF reporter robust z-score |
| --- | --- |
| OR1L4 (olfactory receptor family 1 subfamily L member 4) | 0.08 |
| OR1L4 (olfactory receptor family 1 subfamily L member 4) | 0.25 |
| NTN5 (netrin 5) | 1.1 |
| NTN5 (netrin 5) | 1.58 |
| NTN5 (netrin 5) | 0.74 |
| NTN5 (netrin 5) | -0.34 |
| KRI1 (KRI1 homolog) | -0.17 |
| KRI1 (KRI1 homolog) | -0.12 |
| KRI1 (KRI1 homolog) | 0.43 |
| KRI1 (KRI1 homolog) | 0.58 |
| HMOX2 (heme oxygenase 2) | -0.23 |
| HMOX2 (heme oxygenase 2) | 0.91 |
| HMOX2 (heme oxygenase 2) | 1 |
| HMOX2 (heme oxygenase 2) | 0.81 |
| RNF180 (ring finger protein 180) | 0.16 |
| RNF180 (ring finger protein 180) | 0.26 |
| RNF180 (ring finger protein 180) | -1.36 |
| RNF180 (ring finger protein 180) | -0.23 |
| CHPT1 (choline phosphotransferase 1) | 1.35 |
| CHPT1 (choline phosphotransferase 1) | -0.9 |
| CHPT1 (choline phosphotransferase 1) | -0.73 |
| CHPT1 (choline phosphotransferase 1) | -0.21 |
| STK4 (serine/threonine kinase 4) | 2.82 (active) |
| STK4 (serine/threonine kinase 4) | -0.23 |
| STK4 (serine/threonine kinase 4) | 0.45 |
| STK4 (serine/threonine kinase 4) | 0.7 |
| PEX11B (peroxisomal biogenesis factor 11 beta) | 0.04 |
| PEX11B (peroxisomal biogenesis factor 11 beta) | 1.6 |
| PEX11B (peroxisomal biogenesis factor 11 beta) | 1.17 |
| PEX11B (peroxisomal biogenesis factor 11 beta) | 1.49 |
| GIT1 (GIT ArfGAP 1) | -1.19 |
| GIT1 (GIT ArfGAP 1) | -0.85 |
| GIT1 (GIT ArfGAP 1) | -0.86 |
| GIT1 (GIT ArfGAP 1) | -0.04 |
| CHST2 (carbohydrate sulfotransferase 2) | -0.04 |
| CHST2 (carbohydrate sulfotransferase 2) | 0.04 |
| CHST2 (carbohydrate sulfotransferase 2) | 0.67 |
| CHST2 (carbohydrate sulfotransferase 2) | 1.17 |
| SLC9A9 | -1.37 |
| SLC9A9 | -0.43 |
| SLC9A9 | -0.66 |
| SLC9A9 | -0.47 |
| DNAJC18 (DnaJ heat shock protein family (Hsp40) member C18) | -0.21 |
| DNAJC18 (DnaJ heat shock protein family (Hsp40) member C18) | 0.86 |
| DNAJC18 (DnaJ heat shock protein family (Hsp40) member C18) | 0.12 |
| DNAJC18 (DnaJ heat shock protein family (Hsp40) member C18) | 3.97 (active) |
| PELI3 (pellino E3 ubiquitin protein ligase family member 3) | 1.79 |
| PELI3 (pellino E3 ubiquitin protein ligase family member 3) | 0.7 |
| PELI3 (pellino E3 ubiquitin protein ligase family member 3) | 0.3 |
| PELI3 (pellino E3 ubiquitin protein ligase family member 3) | -0.33 |
| OR8G5 (olfactory receptor family 8 subfamily G member 5) | 1.02 |
| OR8G5 (olfactory receptor family 8 subfamily G member 5) | -0.04 |
| OR8G5 (olfactory receptor family 8 subfamily G member 5) | 0.3 |
| OR8G5 (olfactory receptor family 8 subfamily G member 5) | -0.24 |
| ZFP37 (ZFP37 zinc finger protein) | 1.4 |
| ZFP37 (ZFP37 zinc finger protein) | 0.26 |
| ZFP37 (ZFP37 zinc finger protein) | -0.14 |
| ZFP37 (ZFP37 zinc finger protein) | 0.19 |
| OTX1 (orthodenticle homeobox 1) | -0.76 |
| OTX1 (orthodenticle homeobox 1) | -0.7 |
| OTX1 (orthodenticle homeobox 1) | -0.69 |
| OTX1 (orthodenticle homeobox 1) | -0.73 |
| NCKAP5 (NCK associated protein 5) | -0.94 |
| NCKAP5 (NCK associated protein 5) | -0.28 |
| NCKAP5 (NCK associated protein 5) | -0.48 |
| NCKAP5 (NCK associated protein 5) | -0.03 |
| NACC1 (nucleus accumbens associated 1) | -0.19 |
| NACC1 (nucleus accumbens associated 1) | 0.44 |
| NACC1 (nucleus accumbens associated 1) | 0.13 |
| NACC1 (nucleus accumbens associated 1) | 0.47 |
| MAP3K4 (mitogen-activated protein kinase kinase kinase 4) | 1.04 |
| MAP3K4 (mitogen-activated protein kinase kinase kinase 4) | 0.76 |
| MAP3K4 (mitogen-activated protein kinase kinase kinase 4) | -0.52 |
| MAP3K4 (mitogen-activated protein kinase kinase kinase 4) | 1.01 |
